PubChem BioAssay AID1259425 | University of Nebraska Medical Center – 2018
Purpose: 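Compare each knockdown with KSR1 silencing using changes in marker transcripts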 (primary screen). System: HCT116 human colon cancer cells. Reagent: siRNA pool against human genes, 50 nM siRNA. Measurement: 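After 50 nM siRNA pool, branched-DNA assay measures six marker transcripts per well, minus blank, normalised to the geometric mean of two housekeeping transcripts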. Reading the numbers: BNIP3L mRNA: higher = more BNIP3L transcript after knockdown.
In all, the deposit lists about 14,000 reagents; below is a part drawn at random. Not all columns of the deposit are shown. No sequences are given here. Not given: the time to read-out.

With SORCS2, what was measured?
BNIP3L mRNA, set 1: 0.0794

Which result is listed for CDK12?
BNIP3L mRNA, set 1: 0.0944

What is on record for DRC7?
BNIP3L mRNA, set 1: 0.138

For ADORA3, what was measured?
BNIP3L mRNA, set 1: 0.0826

With NPBWR1, what does the deposit list?
BNIP3L mRNA, set 1: 0.255

How did the screen score UBE2Z?
BNIP3L mRNA, set 1: 0.15

How did the screen score ELOVL7?
BNIP3L mRNA, set 1: 0.102

For MAP4K4, what was measured?
BNIP3L mRNA, set 1: 0.09

For PPP4R3A, what was measured?
BNIP3L mRNA, set 1: 0.036

With ANGEL1, what was measured?
BNIP3L mRNA, set 1: 0.125

For POU3F4, how do the results read?
BNIP3L mRNA, set 1: 0.13

With CD244, how do the results read?
BNIP3L mRNA, set 1: 0.152

2 entries from above, arranged by “BNIP3L mRNA, set 1”, lowest first:
UBE2Z | BNIP3L mRNA, set 1: 0.15
NPBWR1 | BNIP3L mRNA, set 1: 0.255
